The values below come from US20230128075A1.

The chains behind the UniProt entries cited, without tags or fusion partners.
UniProt P17879: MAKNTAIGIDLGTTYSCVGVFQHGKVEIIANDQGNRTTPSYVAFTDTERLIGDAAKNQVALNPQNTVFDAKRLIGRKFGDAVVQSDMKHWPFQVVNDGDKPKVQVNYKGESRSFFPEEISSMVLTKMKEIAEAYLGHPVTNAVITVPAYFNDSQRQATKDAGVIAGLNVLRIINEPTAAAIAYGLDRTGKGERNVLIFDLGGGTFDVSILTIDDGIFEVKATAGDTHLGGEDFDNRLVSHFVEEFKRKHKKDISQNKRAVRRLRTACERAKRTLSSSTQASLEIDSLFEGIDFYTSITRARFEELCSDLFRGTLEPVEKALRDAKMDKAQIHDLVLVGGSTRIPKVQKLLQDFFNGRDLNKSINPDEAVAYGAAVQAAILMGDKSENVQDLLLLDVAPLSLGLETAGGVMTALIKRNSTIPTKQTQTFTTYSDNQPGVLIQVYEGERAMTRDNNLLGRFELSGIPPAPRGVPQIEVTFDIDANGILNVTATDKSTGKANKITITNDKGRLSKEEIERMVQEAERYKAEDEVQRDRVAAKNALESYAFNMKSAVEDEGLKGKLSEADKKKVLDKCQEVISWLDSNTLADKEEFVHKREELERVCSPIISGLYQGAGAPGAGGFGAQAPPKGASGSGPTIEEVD

This assay addresses murine HSP70 (murine) (UniProt P17879). In words: Octet bio-layer interferometry, association to 300 s then dissociation; concentrations not given.

These are yes or no findings as the source states them, for the method shown. Some entries that bind do so weakly or less than the wild type.

B1: 77A antibody (clone 77A, murine anti-HSP70 mAb) (antibody, V domains shown)
VH: QIQLVQSGPELKKPGETVKISCKASGYTFTNYGMNWVKQAPGKGLKWMGWINTYTGEPTYADDFKGRFAFSLETSATTAYLQINNLKNEDTATYFCARYDHAMDYWGQGTSVTVSS
VL: DIVMSQSPSSLAVSAGEKVTMSCKSSQSLLNSGTRKNYLAWYQQKPGQSPKLLIYWTSTRESGVPDRFTGSGSGTDFTLTINSVQAEDLAVYYCKQSYTLYTFGGGTKLEIK
With B1, the binding result is given as “binds”.
